From PubChem BioAssay AID2685 (National Center for Advancing Translational Sciences (NCATS), 2010)
This is one part of the list. Shown are side measurements of this screen, not its main read-out; they come without a call. Most of these compounds were active or inconclusive in the main read-out, so they are no random draw. Words in brackets tell the shape of the fitted curve; partial curves, single points and poor fits give uncertain potencies.

Assay: qHTS Assay for Lipid Storage Modulators in Drosophila S3 Cells;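 as to cell number change: cells counted by Cell Tracker Red CMTPX staining in the red channel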
Conditions: BODIPY lipid droplet fluorescence, 18-24 h; for cell number change: measured here: cell count max response, cells fed with added oleic acid
How it was run: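 Drosophila S3 cells got compounds at several concentrations plus oleic acid (400 uM solution). Laser-scanning cytometry with 488 nm excitation read lipid droplets at 500-530 nm and cells at 575-640 nm. Percent activity was relative to 20 uM Triacsin C.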

[1] = measured here: cell number channel AC50, cells fed with added oleic acid
[2] = measured here: lipid fluorescence (Fed channel) AC50, cells fed with added oleic acid

Compound	cell number change [%]	AC50 [1]	AC50 [2]
COCC(=O)NC1CCN(C(=O)NCc2ccccc2)CC1	-40	29.1 µM [falling, single point]	18.4 µM [falling, partial curve]
CCC(C)n1cnc2c(c1=O)c1nc3ccccc3nc1n2Cc1ccc2c(c1)OCO2 (configuration not stated)	-36.5	16.4 µM [falling, partial curve, poor fit]	1.84 µM [rising, partial curve]
CCCCOc1ccc([N+](=O)[O-])cc1C(=O)O	2.6		
CC(C)Oc1ccc(-c2nc(NCC3CCCO3)c3ccccc3n2)cc1 (configuration not stated)	10.1		0.164 µM [rising, full curve, poor fit]
COc1ccc(NC(C)=O)cc1NC(C)C(=O)Nc1ccccc1F (configuration not stated)	39.7	3.66 µM [rising, full curve]	
CCOc1cc(CNCCO)ccc1OCC(=O)NC(C)(C)C	43.6		4.11 µM [falling, partial curve]
COc1cccc(NC(=O)N2CCC(NC(=O)C(Cc3ccccc3OC)NC(C)=O)CC2)c1 (configuration not stated)	-9.68		8.2 µM [falling, partial curve, poor fit]
Cc1ccc(-c2nc(CNC(=O)c3ccco3)cs2)cc1	-34.5	13 µM [falling, single point]	13 µM [falling, partial curve, poor fit]
COc1ccc(C(=O)Nc2c(N)nc(SCC(=O)Nc3ccc(NC(C)=O)cc3)[nH]c2=O)cc1	4.9		
O=S(=O)(c1ccc(Oc2ccc(Cl)cc2)nc1)N1CCOCC1	82	7.31 µM [rising, partial curve]	
CCOc1cc(C(=O)Nc2ccon2)cc(OCC)c1OCC	32.1	3.66 µM [rising, single point]	9.2 µM [rising, single point]
CCCCNS(=O)(=O)c1ccc2nc(-c3cccnc3)cc(C(=O)NCCCOCC)c2c1	-6.52		
COCCN(C(=O)COC(=O)CCc1nc2ccccc2s1)c1c(N)n(Cc2ccccc2)c(=O)[nH]c1=O	9.28		
CCOC(=O)C1(CCc2ccccc2)CCN(C(=O)CN2C(=O)CSC2=O)CC1	29.2	0.00517 µM [rising, full curve, poor fit]	
CCOc1ccc(OCCCC(=O)NCCc2ccc(OC)cc2)cc1	7.03		18.4 µM [falling, single point]
CC1CN(CC(O)COc2ccc(C#N)cc2)CCN1CC(O)COc1ccc(C#N)cc1 (configuration not stated)	14.7		6.51 µM [rising, single point]
Cc1cc(-c2nnc(SCCC(=O)Nc3ccccc3)o2)no1	-15.3		8.2 µM [falling, single point]
O=C(COc1coc(CN2CCc3ccccc3C2)cc1=O)Nc1ccc([N+](=O)[O-])cc1	-75	3.66 µM [falling, full curve]	
COc1cccc(N(CC(=O)NCc2cccnc2)S(C)(=O)=O)c1	1.14	6.51 µM [falling, single point]	6.51 µM [falling, single point]

Reprinted at random: two entries already listed, in no set order.
Compound	cell number change [%]	AC50 [1]	AC50 [2]
COCCN(C(=O)COC(=O)CCc1nc2ccccc2s1)c1c(N)n(Cc2ccccc2)c(=O)[nH]c1=O	9.28		
CCOc1ccc(OCCCC(=O)NCCc2ccc(OC)cc2)cc1	7.03		18.4 µM [falling, single point]

More structures

Compound	cell number change [%]	AC50 [1]	AC50 [2]
CC(C)N1C(=O)CCC1C(=O)NCc1ccc(F)cc1Cl (configuration not stated)	1.42		
COc1cccc(CN(C)C(=O)CC23CC4CC(CC(C4)C2)C3)c1OC	-17.1		
CC(C)(C)C(=O)c1no[n+]([O-])c1/C(=N/O)C(C)(C)C	-49.5	20.6 µM [falling, single point]	23.1 µM [falling, single point]
CC(C)=CCCC1(C)C=Cc2c(c(C)cc3c2[nH]c2cc(O)ccc23)O1 (configuration not stated)	-72.5	18.4 µM [falling, partial curve]	14.6 µM [falling, partial curve, poor fit]
O=C(CCCCC(=O)NCCCc1ccccc1)NCCCc1ccccc1			16.4 µM [falling, partial curve, poor fit]
Cc1ccccc1C(=O)N1CCC(C(=O)Nc2nc3ccc(F)cc3s2)CC1	-6.08	0.411 µM [rising, full curve]	0.58 µM [rising, partial curve]
COc1cc(O)c(C(CC(=O)N2CCOCC2)c2ccc(N(C)C)cc2)c(OC)c1 (configuration not stated)	33.6		29.1 µM [rising, single point]
Cc1ccc(S(=O)(=O)NC(N)=NCCc2ccc(Cl)cc2)cc1	31.9	29.1 µM [rising, single point]	18.4 µM [rising, single point]
Cc1ccccc1S(=O)(=O)Cc1ccc(C(=O)N2CC(C)CC(C)C2)o1 (configuration not stated)	43.7	29.1 µM [rising, single point]	29.1 µM [rising, single point]
O=C(O)CCc1ncc(C(F)(F)F)cc1Cl	-21.4		
Cc1c(Cl)cccc1NC(=O)Nc1cc(C(C)(C)C)nn1C	-43.5	29.1 µM [falling, single point]	29.1 µM [falling, single point]
CCOc1ccc(S(=O)(=O)Nc2ccc(Cl)cn2)c(C)c1C		6.51 µM [falling, single point]	6.51 µM [falling, single point]
Cc1csc(NC(=O)C(C)Oc2ccc(Br)cc2)n1 (configuration not stated)	23.7		
COc1ccc(N2CCN(C(C)=C3C(=O)c4ccccc4C3=O)CC2)cc1	-18.8		23.1 µM [falling, single point]
COc1ccccc1NC(=O)Nc1ccc2c(c1)OCCO2	18.9		29.1 µM [rising, single point]
COc1ccc(-c2nc3ccccn3c2/N=C/c2ccc(OC)c(OC)c2)cc1O	19.1	6.51 µM [rising, single point]	
CN(C)S(=O)(=O)c1cccc(C(=O)Nc2cc(Cl)cc(Cl)c2)c1	25.3		6.51 µM [falling, single point]
COc1ccc(CCNC(=O)CSc2nnc3ccc(-c4cccnc4)nn23)cc1	-37.5	32.6 µM [falling, single point]	20.6 µM [falling, single point]
